Measured values reported in article PMC3400551.
Results are given in words; binding and its absence hold for the method and conditions named. Binding calls can cover weak binding; strength is not graded here.

Legend:
[1] = target: Synechocystis PCC 6803 RsfA (Synechocystis PCC 6803); assay: two-hybrid; baits in pGBKT7g and preys in pGADT7g, haploid strains AH109 and Y187 mated; growth of diploids on medium lacking Leu, Trp and His with 0 to 100 mM 3-AT; quadruplicates
[2] = target: Streptococcus pneumoniae TIGR4 RsfA (Streptococcus pneumoniae TIGR4); assay: as above

binding [1]	binding [2]	Binder
binds	–	Synechocystis PCC 6803 ribosomal protein L14 (protein, UniProt P73310 1-122) MIQQQTYLNVADNSGARKLMCLRVLGTGNCTYGGIGDQIIAVVKDALPNMPIKKSDVVRAVIVRTKQPLRRASGMSIRFDDNAAVIINAEGNPRGTRVFGPVARELRDKNFTKIVSLAPEVL
–	binds	Streptococcus pneumoniae TIGR4 ribosomal protein L14 (protein, UniProt B1I8K8 1-122) MIQTETRLKVADNSGAREILTIKVLGGSGRKFANIGDVIVASVKQATPGGAVKKGDVVKAVIVRTKSGARRADGSYIKFDENAAVIIREDKTPRGTRIFGPVARELREGGFMKIVSLAPEVL
